Test results as given in publication PMC7780675.
No constants are given. Whether binding was seen depends on the method and setting. In cells and extracts the contact can be indirect. Some entries that bind do so weakly or less than the wild type.

By UniProt entry, the sequences of proteins in these tests, tags left out.
UniProt P16455: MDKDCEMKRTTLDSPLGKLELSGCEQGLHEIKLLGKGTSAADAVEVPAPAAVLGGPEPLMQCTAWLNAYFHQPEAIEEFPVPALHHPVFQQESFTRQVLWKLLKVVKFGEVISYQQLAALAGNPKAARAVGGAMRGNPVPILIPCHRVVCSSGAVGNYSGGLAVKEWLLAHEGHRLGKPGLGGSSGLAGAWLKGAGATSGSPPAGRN
UniProt P51587: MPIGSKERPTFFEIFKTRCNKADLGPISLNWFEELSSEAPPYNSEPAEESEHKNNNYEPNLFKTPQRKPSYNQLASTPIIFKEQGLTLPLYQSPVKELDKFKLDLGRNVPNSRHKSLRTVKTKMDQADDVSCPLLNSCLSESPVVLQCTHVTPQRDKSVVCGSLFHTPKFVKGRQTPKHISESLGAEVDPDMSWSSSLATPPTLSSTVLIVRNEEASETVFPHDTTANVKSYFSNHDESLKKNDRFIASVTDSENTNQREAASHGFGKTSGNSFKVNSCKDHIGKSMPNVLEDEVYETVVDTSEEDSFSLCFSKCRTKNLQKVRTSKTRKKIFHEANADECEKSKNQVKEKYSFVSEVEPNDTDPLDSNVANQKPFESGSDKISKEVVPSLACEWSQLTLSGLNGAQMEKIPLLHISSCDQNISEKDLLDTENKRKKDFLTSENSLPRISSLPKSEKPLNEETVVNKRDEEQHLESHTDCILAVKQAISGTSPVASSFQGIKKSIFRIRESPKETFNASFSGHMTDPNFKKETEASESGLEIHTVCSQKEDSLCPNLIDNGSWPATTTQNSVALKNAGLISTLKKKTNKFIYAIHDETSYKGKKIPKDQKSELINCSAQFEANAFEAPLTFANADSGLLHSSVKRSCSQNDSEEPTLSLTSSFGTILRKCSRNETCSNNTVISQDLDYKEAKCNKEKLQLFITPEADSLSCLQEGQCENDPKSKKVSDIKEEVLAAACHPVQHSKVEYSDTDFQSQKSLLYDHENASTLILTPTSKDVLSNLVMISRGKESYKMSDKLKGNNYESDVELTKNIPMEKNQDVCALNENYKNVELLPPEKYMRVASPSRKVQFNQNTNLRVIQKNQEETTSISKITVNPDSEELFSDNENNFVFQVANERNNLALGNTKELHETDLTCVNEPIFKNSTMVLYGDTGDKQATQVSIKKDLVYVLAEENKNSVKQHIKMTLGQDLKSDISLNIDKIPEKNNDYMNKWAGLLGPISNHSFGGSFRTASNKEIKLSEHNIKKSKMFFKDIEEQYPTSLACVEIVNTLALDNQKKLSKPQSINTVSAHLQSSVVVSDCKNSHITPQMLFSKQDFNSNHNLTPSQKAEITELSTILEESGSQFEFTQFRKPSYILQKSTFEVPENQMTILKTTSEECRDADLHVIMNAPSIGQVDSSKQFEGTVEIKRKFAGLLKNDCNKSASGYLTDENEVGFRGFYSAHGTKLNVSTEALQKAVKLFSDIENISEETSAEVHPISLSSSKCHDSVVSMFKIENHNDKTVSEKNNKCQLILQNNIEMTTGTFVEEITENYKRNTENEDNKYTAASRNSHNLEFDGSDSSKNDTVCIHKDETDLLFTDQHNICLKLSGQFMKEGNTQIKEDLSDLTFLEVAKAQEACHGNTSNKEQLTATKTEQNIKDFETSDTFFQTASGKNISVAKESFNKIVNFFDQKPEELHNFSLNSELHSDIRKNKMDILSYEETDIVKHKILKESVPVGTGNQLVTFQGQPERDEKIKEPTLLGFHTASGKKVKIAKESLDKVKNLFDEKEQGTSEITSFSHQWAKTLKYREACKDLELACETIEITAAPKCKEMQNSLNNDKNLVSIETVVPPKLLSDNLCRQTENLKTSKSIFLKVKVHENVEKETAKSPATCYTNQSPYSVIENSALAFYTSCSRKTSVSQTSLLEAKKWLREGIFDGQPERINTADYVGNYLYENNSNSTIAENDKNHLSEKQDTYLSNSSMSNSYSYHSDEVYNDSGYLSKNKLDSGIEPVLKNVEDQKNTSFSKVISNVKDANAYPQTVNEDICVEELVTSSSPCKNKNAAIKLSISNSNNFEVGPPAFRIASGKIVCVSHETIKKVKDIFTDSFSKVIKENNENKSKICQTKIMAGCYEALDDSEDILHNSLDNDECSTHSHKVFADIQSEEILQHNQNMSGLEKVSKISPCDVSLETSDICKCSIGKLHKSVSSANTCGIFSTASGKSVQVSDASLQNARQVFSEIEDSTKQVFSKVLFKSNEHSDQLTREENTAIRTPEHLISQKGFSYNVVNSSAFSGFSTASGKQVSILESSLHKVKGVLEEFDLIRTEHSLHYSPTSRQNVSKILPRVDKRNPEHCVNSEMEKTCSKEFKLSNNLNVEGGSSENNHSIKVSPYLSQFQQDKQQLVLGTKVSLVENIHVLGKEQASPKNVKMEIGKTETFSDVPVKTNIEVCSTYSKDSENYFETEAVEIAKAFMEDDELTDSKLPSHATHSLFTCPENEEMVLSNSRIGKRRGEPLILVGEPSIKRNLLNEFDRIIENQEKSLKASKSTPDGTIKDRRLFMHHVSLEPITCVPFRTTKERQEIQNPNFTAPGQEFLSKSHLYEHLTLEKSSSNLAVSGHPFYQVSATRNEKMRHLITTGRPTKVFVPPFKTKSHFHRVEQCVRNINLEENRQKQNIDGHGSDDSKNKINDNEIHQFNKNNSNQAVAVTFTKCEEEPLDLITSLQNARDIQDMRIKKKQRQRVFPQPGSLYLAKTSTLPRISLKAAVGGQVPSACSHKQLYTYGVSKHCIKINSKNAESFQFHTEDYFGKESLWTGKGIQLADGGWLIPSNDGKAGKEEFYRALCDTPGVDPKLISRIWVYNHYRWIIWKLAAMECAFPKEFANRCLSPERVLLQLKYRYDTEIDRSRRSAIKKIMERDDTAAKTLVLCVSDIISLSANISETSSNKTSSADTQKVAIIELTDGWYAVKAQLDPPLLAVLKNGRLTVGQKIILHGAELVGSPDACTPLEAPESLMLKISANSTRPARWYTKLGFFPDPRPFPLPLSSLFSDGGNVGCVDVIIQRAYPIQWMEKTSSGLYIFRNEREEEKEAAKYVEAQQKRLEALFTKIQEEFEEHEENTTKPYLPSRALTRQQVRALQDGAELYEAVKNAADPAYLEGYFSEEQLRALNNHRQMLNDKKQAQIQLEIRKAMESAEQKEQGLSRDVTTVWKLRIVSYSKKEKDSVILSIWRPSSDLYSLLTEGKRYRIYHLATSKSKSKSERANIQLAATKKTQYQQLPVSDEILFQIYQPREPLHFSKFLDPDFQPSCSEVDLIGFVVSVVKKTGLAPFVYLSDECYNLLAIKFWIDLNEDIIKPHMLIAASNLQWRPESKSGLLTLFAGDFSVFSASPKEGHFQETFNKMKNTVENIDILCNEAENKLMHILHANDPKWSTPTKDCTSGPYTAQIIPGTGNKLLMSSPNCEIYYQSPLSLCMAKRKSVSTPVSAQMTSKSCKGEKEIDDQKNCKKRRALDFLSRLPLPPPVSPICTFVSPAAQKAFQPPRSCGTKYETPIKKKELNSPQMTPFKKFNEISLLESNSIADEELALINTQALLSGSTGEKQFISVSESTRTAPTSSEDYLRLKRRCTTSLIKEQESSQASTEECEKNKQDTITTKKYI

Biological target: O6-methylguanine-DNA methyltransferase (human (endogenous in HONE-1 and TW01)) (UniProt P16455)
Experiment: co-IP; lysates of HONE-1 and TW01 cells, with or without 10 µM CDDP for 8 h; 20 U/ml DNase I in the lysis buffer, sonicated; precipitated with anti-MGMT antibodies (1 µg/mL) or negative control IgG, Protein A/G resin; Western blot

- binding: binds
Substance: BRCA2 (from UniProt P51587 1-3418)
